The values below come from US20230365577A1, “Photodynamic Therapy and Diagnosis” (RMW CHO Group Limited, priority 2020, published 2023).

One series deals with SKOV3 cells. Put plainly: Cellular uptake and retention (intrinsic fluorescence). The format is cell-based, Human. The conditions noted are these: SKOV3, fluorescence imaging. The protocol:
Based on the increased phototoxicity of compound 1c versus compound 1, it was assessed whether this salt substitution alters cellular uptake or retention over time. SKOV3 cells were incubated for up 24 hours in the presence of either compound 1 or 1c (as previously described). At defined time intervals (FIG. 5) the media was aspirated, replaced with sterile PBS, and cells imaged for fluorescence (Ex 405 nm/Em 660 nm) using a Cytation 3 Multimode Plate Reader (Biotek). After 24 hours the media was aspirated, replaced with fresh media and the loss of cellular fluorescence similarly monitored. All images (minimum 100 cells per time point) were then quantitatively analysed (Gen5.0 software) and an average fluorescence/cell/time point determined. Average fluorescence measurements were normalised against the maximum average value measured for each photosensitizer, and plotted as percent total fluorescence (mean±SD) overtime.
The uptake and retention of compounds 1 and 2 was compared in SKOV3 cancer cells over a 48 hour period. SKOV3 cells were incubated for up 24 hours in the presence of either compound 1 or 2 (as previously described). At defined time intervals (FIG. 6) the media was aspirated, replaced with sterile PBS, and cells imaged for fluorescence (Ex 405 nm/Em 660 nm) using a Cytation 3 Multimode Plate Reader (Biotek). After 24 hours the media was aspirated, replaced with fresh media and the loss of cellular fluorescence similarly monitored. All images (minimum 100 cells per time point) were then quantitatively analysed (Gen5.0 software) and an average fluorescence/cell/time point determined. Average fluorescence measurements were normalised against the maximum average value measured for each photosensitizer, and plotted as percent total fluorescence (mean±SD) over time.
Phyllochlorin was functionalised with saccharidyl groups (glucose or mannose) using various configurations, and the effects on rate of uptake by cells assessed over a 4 hour incubation period as above. The rate of uptake of saccharidyl-conjugated phyllochlorin analogues exceeded that of unconjugated compound 2 (examples shown in FIG. 7); after 2 hours, saccharidyl-conjugated phyllochlorin analogues (compounds 6, 8 and 17) had reached 57-68% of their maximal uptake compared to 37% for compound 2 (FIG. 7A). By 4 hours total uptake was similar, and there was no apparent difference in cellular distribution between glucose (compounds 6 and 8) and mannose (compound 17) linked species (FIG. 7B).

Series [1] deals with SKOV3 ovarian cancer cells. Description: Phototoxicity in SKOV3 cells (652 nm laser, AlamarBlue viability). Format: cell-based, Human. The settings on record: calculated using phototoxicity IC90 vs dark toxicity IC10, SKOV3. The method, then: Human ovarian cancer cell line SKOV3 (ATCC #HTB-77) was maintained in Dulbecco's Modified Eagle Medium/Nutrient Mixture F-12 (DMEM/F-12), supplemented with 10% v/v Fetal Bovine Serum, 100 U/mL penicillin and 100 µg/mL streptomycin. Monolayer cultures were grown in a humidified incubator at 37° C. with 5% CO2.
For in vitro experiments, photosensitizers (stock solution 5.5 mM in 100% DMSO) were diluted in cell culture media (Dulbecco's Modified Eagle Medium/Nutrient Mixture F-12) supplemented with 10% v/v Fetal Bovine Serum, 100 U/mL penicillin, 100 µg/mL streptomycin and 10% w/v Kollidon-12. Once cells had reached ˜80% confluence, spent media was replaced with media containing photosensitizer and cells were incubated for the desired period of time to allow photosensitizer uptake.
SKOV3 cells were seeded in 96-well black wall plates (Greiner #655090) at a cell density of 5000 cells in 100 μl culture medium per well. On reaching ˜60% confluence, so media was aspirated and replaced with fresh media containing the relevant phyllochlorin analogue from 0-100 μM in DMSO. Cells were incubated for a further 24 hours, allowing uptake of phyllochlorin analogues.
To test for phototoxicity, cells incubated with phyllochlorin analogues (0-10 μM in DMSO) had culture media replaced after 24 hours (as above) and were then exposed to a 652 nm laser (Invion) with laser density at 50 mW/cm^2 for 5 mins (total 15 J/cm^2). Following activation, cells were cultured for a further 24 hours. Media was then replaced with fresh media containing AlamarBlue, and % viable cells remaining assessed as above. Controls included cells treated with phyllochlorin analogues but not activated by laser light; cells without phyllochlorin analogue treatment but with laser light; and untreated controls. All measurements were made in quadruplicate.
For comparative purposes, phyllochlorin analogues were tested and compared against both chlorin e4 disodium and Talaporfin sodium, a clinically approved photosensitizer used in the photodynamic treatment of lung cancers. Phototoxicity IC90 values and dark toxicity IC10 values were calculated using a log[inhibitor]-vs normalized response dose curve with variable slope, using the formula Y=100/(1+(IC90/X)^HillSlope (phototoxicity IC90) or Y=100/(1+(IC10/X)^HillSlope (dark toxicity IC10).

Where a name gives a salt, the structure may show the parent alone. Some compounds share one wording; it may come from a single statement.

With `C=Cc1c(C)c2cc3nc(c(C)c4cc(C)c(cc5nc(cc1[nH]2)C(C)=C5CC)[nH]4)[C@@H](CCC(=O)N(C)CCCS[C@@H]1O[C@H](CO)[C@@H](O)[C@H](O)[C@@H]1O)[C@@H]3C` [Compound 17, phyllochlorin β-D-1-thiomannose-N-methylpropylamide conjugate], the Cellular distribution result with SKOV3 cells is “diffusely distributed throughout the cytoplasm”. In series [1], the “Therapeutic Index” value was 346.68.

Regarding `C=Cc1c(C)c2cc3nc(c(C)c4cc(C)c(cc5nc(cc1[nH]2)C(C)=C5CC)[nH]4)[C@@H](CCC(=O)OC)[C@@H]3C` [Compound 2, phyllochlorin methyl ester], in the series with SKOV3 cells, the Cellular distribution entry is “distinctly punctate distribution”. The “Therapeutic Index” value in series [1] is 152.38.

Turning to `C=Cc1c(C)c2cc3nc(c(C)c4cc(C)c(cc5nc(cc1[nH]2)C(C)=C5CC)[nH]4)[C@@H](CCC(=O)O)[C@@H]3C` [Compound 1, phyllochlorin sodium salt], in the series with SKOV3 cells, the Cellular distribution result is reported as “diffusely distributed throughout the cytoplasm”. Also, the “Therapeutic Index” value in series [1] (sodium salt) was 62.74.

`C=Cc1c(C)c2cc3nc(c(C)c4cc(C)c(cc5nc(cc1[nH]2)C(C)=C5CC)[nH]4)[C@@H](CCC(=O)N(C)CCCCCS[C@@H]1O[C@H](CO)[C@@H](O)[C@H](O)[C@H]1O)[C@@H]3C` [Compound 8, 3-((7S,8S)-18-ethyl-2,5,8,12,17-pentamethyl-13-vinyl-7H,8H-porphyrin-7-yl)-N-methyl-N-(5-(((2S,3R,4S,5S,6R)-3,4,5-trihydroxy-6-(hydroxymethyl)tetrahydro-2H-pyran-2-yl)thio)pentyl)propanamide]: the Cellular distribution entry in the series on SKOV3 cells is given as “diffusely distributed throughout the cytoplasm”. For the same molecule, the “Therapeutic Index” value in series [1] is given as 209.17.

In the case of `C=Cc1c(C)c2cc3nc(c(C)c4cc(C)c(cc5nc(cc1[nH]2)C(C)=C5CC)[nH]4)[C@@H](CCC(=O)N(C)CCCS[C@@H]1O[C@H](CO)[C@@H](O)[C@H](O)[C@H]1O)[C@@H]3C` [Compound 6, 3-((7S,8S)-18-ethyl-2,5,8,12,17-pentamethyl-13-vinyl-7H,8H-porphyrin-7-yl)-N-methyl-N-(3-(((2S,3R,4S,5S,6R)-3,4,5-trihydroxy-6-(hydroxymethyl)tetrahydro-2H-pyran-2-yl)thio)propyl)propanamide], the Cellular distribution result in the series with SKOV3 cells is recorded as “diffusely distributed throughout the cytoplasm”. The “Therapeutic Index” value in series [1] is 158.17.

For the molecule `C=Cc1c(C)c2cc3nc(c(C)c4cc(C)c(cc5nc(cc1[nH]2)C(C)=C5CC)[nH]4)[C@@H](CCC(=O)NCCCS[C@@H]1O[C@H](CO)[C@@H](O)[C@H](O)[C@H]1O)[C@@H]3C` [Compound 3, 3-((7S,8S)-18-ethyl-2,5,8,12,17-pentamethyl-13-vinyl-7H,8H-porphyrin-7-yl)-N-(3-(((2S,3R,4S,5S,6R)-3,4,5-trihydroxy-6-(hydroxymethyl)tetrahydro-2H-pyran-2-yl)thio)propyl)propanamide], in series [1], the “Therapeutic Index” value was 258.25.

For the molecule `C=Cc1c(C)c2cc3nc(c(C)c4cc(C)c(cc5nc(cc1[nH]2)C(C)=C5CC)[nH]4)[C@@H](CCC(=O)O)[C@@H]3C` [Compound 1d, phyllochlorin arginine salt], the “Therapeutic Index” value in series [1] was 12.78.
